Reference: PubChem BioAssay AID686943 (Drosophila RNAi Screening Center, 2013)
Purpose: 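Knockdowns that increase or decrease active ERK after insulin receptor stimulation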 (primary screen). Cells: Drosophila S2R+ haemocyte-like cells expressing YFP-tagged ERK (Rolled). Knock-down reagent: long dsRNA against Drosophila genes. Conditions: insulin stimulation versus unstimulated cells; dose and duration not given. Measured: 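Antibody staining for doubly phosphorylated ERK divided by ERK-YFP signal, as plate z-scores, in insulin-treated and untreated cells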. Scale: replicate 1, z-score of dpERK with insulin and replicate 2, z-score of dpERK with insulin: higher = more active ERK per ERK-YFP after insulin; replicate 1, z-score of dpERK under basal conditions: higher = more basal active ERK per ERK-YFP; replicate 1, z-score of ERK-YFP with insulin: higher = more YFP-tagged ERK signal.
In all, the deposit lists about 23,000 reagents; shown is an unselected part of those that have a named target and a result. 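Extra replicates exist only for a retested subset of genes; insulin dose and duration not given; both raised and lowered dpERK matter.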 The numbers tell different reagents against one gene apart. A plus sign joins genes that one reagent is predicted to hit. Not stated in the record: the amount of reagent, the time to read-out.

target	reagent no.	replicate 1, z-score of dpERK with insulin	replicate 2, z-score of dpERK with insulin	replicate 1, z-score of dpERK under basal conditions	replicate 1, z-score of ERK-YFP with insulin
Gr66a	1	0.16	-0.34	0.14	0.17
TwdlW	1	0.02	0.51	0.65	-0.33
TTLL5	1	-0.38	0.83	0.48	-0.4
CG46385	1	-4.27	-4.58	-2.64	-4.23
CG46385	2	0.32	0.23	1.06	-0.34
CR32733	1	0.55	0.89	1.55	0.06
CG42812	1	0.62	-0.2	0.15	0.29
CG3815	1	0.13	0.39	-0.65	-0.04
CG8366	1	2.22	0.84	0.36	0.93
CG42493	1	-0.29	-0.85	-0.27	0.25
CG10602	1	-0.43	-0.25	-0.6	1.66
CG7550	1	0.01	0.31	-0.01	0.22
CG7083	1	0.3	0.41	-0.48	-1.29
rib	1	-0.18	-0.09	0.7	0.09
Spn75F	1	-0.48	0.22	1.42	0.28
Best3	1	-0.03	1.16	-0.01	-5.36
CG6707	1	0.75	0.37	-0.45	0.28
Npc2h	1	0.56	-0.24	0.47	-0.09
CG14913	1	1.35	0.55	1.85	0.47
MFS16	1	-1.13	-0.12	0.17	0.15
wun2	1	0.31	0.35	1.66	0.41
Gpa2	1	0.05	-0.18	-0.47	0.12
eca	1	-0.9	-1.71	1.51	-0.76
Msr-110	1	0.35	0.26	-0.88	0.07
TwdlF	1	0.63	-0.28	-0.52	-0.15
CG33278	1	-0.26	0.38	-0.3	0.08
CG13297	1	-0.07	-0.42	0.45	-0.47
CG4210	1	0.26	-0.98	0.59	-0.57
Kcmf1	1	-1	-0.93	-1.34	0.97
CtsL2	1	0.61	0.27	0.31	-0.01
CAH2	1	0.62	0.54	-0.07	0.35
CCDC151	1	-0.27	-0.09	-0.1	0.81
CG32855	1	-0.28	-0.54	1.22	0.16
CG12693	1	0.53	0.13	0.48	-0.74
CG34174	1	0.47	0.91	-0.98	0.06
CG14316	1	0.09	0.39	0.39	-0.35
Pdf	1	-0.13	-0.1	1.35	-0.61
TM4SF	1	0.37	-0.68	0.8	-0.12
sm	1	0.08	0.22	0.4	0.67
sm	2	0.9	0.96	0.09	-1.46
CG14218	1	-0.18	-0.12	-0.74	0.71
Atg10 + CG12822	1	-0.5	-0.09	-1.71	-0.16
unc-5	1	0.54	0.3	0.92	0.15
unc-5	2	1.39	-0.49	0.4	-0.51
unc-5	3	0.89	1.77	0.77	-0.21
hoip	1	0.13	-2.1	-1.59	-6.12
Argk2	1	0.38	0.31	-1.24	0.6
CG15459	1	0.56	0.01	-0.57	0.11
CG15459	2	-0.31	0.88	-0.54	-0.92
CG8292	1	-0.82	0.06	0.13	-0.04
Sply	1	-0.09	0.25	1.36	1.49
CG43366	1	-0.01	0.23	0.1	0.41
CG43366	2	-0.38	0.81	0.23	0.89
CG13557	1	-0.31	-1.86	0.06	0.14
Hs2st	1	0.15	0.1	-1.06	0.09
Ugalt	1	-0.08	0.76	1.37	0.12
kin17	1	0.82	-0.87	-0.28	-0.03

6 of these entries in another layout.
CAH2: replicate 1, z-score of dpERK with insulin = 0.62; replicate 2, z-score of dpERK with insulin = 0.54; replicate 1, z-score of dpERK under basal conditions = -0.07; replicate 1, z-score of ERK-YFP with insulin = 0.35
CCDC151: replicate 1, z-score of dpERK with insulin = -0.27; replicate 2, z-score of dpERK with insulin = -0.09; replicate 1, z-score of dpERK under basal conditions = -0.1; replicate 1, z-score of ERK-YFP with insulin = 0.81
CG32855: replicate 1, z-score of dpERK with insulin = -0.28; replicate 2, z-score of dpERK with insulin = -0.54; replicate 1, z-score of dpERK under basal conditions = 1.22; replicate 1, z-score of ERK-YFP with insulin = 0.16
CG12693: replicate 1, z-score of dpERK with insulin = 0.53; replicate 2, z-score of dpERK with insulin = 0.13; replicate 1, z-score of dpERK under basal conditions = 0.48; replicate 1, z-score of ERK-YFP with insulin = -0.74
CG34174: replicate 1, z-score of dpERK with insulin = 0.47; replicate 2, z-score of dpERK with insulin = 0.91; replicate 1, z-score of dpERK under basal conditions = -0.98; replicate 1, z-score of ERK-YFP with insulin = 0.06
CG14316: replicate 1, z-score of dpERK with insulin = 0.09; replicate 2, z-score of dpERK with insulin = 0.39; replicate 1, z-score of dpERK under basal conditions = 0.39; replicate 1, z-score of ERK-YFP with insulin = -0.35
